# Laboratory results taken from the supplement of paper PMC12823440, “Inhibitors supercharge kinase turnover through native proteolytic circuits” (Nature, 2025).
# Chains of the proteins cited; added tags and fusions are not shown. Lines headed by an entry give the natural chain unless they say otherwise; changes in a name come on top.
# UniProt O15530: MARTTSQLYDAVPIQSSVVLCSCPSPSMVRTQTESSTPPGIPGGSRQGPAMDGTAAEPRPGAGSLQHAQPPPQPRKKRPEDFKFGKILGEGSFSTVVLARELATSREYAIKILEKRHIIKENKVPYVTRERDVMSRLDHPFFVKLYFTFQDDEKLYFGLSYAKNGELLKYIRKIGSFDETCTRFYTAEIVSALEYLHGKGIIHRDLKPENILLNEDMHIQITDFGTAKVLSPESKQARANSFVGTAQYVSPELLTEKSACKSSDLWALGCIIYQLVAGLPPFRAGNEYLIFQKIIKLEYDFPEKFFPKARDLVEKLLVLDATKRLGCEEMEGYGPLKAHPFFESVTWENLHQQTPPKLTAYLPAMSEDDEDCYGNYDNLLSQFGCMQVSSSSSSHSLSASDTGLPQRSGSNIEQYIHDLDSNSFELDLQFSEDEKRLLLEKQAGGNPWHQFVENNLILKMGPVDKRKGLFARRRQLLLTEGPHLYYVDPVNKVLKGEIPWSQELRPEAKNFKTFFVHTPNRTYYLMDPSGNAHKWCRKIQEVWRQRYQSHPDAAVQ
# UniProt Q9UBF8: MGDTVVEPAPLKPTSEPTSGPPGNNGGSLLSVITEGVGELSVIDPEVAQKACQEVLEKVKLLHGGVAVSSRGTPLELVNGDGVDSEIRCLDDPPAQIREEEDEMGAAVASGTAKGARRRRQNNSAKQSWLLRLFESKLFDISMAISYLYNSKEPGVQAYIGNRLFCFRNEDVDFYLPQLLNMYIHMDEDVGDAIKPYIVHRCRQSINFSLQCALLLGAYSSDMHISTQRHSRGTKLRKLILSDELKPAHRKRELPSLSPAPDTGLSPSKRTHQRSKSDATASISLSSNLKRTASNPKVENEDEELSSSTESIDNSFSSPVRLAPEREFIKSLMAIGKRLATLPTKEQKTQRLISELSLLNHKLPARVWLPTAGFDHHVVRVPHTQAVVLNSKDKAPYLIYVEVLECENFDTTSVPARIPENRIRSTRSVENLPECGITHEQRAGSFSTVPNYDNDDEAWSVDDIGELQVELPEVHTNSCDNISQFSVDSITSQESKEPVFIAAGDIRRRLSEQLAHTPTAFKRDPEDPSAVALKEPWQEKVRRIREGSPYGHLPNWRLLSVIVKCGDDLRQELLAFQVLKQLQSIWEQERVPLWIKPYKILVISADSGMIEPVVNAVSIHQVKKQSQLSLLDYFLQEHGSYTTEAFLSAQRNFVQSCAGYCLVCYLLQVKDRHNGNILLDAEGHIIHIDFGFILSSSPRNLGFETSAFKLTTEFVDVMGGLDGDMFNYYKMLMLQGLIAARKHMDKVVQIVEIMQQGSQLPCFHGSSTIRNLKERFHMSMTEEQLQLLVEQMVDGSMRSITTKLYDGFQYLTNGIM
# UniProt P53350, whole entry: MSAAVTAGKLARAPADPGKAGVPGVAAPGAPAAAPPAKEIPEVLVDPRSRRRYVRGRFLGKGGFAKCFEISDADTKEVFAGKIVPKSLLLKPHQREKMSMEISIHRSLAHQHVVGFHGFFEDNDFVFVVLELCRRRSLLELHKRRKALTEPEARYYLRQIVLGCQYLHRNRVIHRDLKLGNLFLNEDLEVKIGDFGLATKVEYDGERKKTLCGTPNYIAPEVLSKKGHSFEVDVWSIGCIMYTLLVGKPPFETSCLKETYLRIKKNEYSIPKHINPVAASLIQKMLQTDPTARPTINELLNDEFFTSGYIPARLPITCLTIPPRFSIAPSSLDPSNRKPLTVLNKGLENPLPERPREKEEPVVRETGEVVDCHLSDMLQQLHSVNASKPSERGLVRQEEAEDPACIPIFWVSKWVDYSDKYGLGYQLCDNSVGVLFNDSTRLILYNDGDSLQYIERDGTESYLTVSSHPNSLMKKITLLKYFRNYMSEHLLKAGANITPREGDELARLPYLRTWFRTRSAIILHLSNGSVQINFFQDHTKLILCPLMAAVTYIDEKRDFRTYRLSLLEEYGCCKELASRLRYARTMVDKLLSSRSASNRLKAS
# UniProt Q13131: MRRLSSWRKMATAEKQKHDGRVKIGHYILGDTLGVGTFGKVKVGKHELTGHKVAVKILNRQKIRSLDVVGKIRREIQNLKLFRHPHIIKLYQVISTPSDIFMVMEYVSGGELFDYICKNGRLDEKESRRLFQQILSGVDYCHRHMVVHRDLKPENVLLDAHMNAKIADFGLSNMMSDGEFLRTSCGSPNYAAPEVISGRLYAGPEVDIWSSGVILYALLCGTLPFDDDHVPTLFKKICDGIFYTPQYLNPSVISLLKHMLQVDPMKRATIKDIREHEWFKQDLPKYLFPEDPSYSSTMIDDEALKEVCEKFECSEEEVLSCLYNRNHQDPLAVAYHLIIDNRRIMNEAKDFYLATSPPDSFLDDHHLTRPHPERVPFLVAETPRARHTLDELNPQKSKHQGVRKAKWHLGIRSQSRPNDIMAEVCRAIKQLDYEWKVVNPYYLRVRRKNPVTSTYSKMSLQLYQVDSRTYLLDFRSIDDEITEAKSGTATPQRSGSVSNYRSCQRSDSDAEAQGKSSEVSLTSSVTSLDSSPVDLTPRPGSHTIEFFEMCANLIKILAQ
# UniProt Q05397, whole entry, looked up: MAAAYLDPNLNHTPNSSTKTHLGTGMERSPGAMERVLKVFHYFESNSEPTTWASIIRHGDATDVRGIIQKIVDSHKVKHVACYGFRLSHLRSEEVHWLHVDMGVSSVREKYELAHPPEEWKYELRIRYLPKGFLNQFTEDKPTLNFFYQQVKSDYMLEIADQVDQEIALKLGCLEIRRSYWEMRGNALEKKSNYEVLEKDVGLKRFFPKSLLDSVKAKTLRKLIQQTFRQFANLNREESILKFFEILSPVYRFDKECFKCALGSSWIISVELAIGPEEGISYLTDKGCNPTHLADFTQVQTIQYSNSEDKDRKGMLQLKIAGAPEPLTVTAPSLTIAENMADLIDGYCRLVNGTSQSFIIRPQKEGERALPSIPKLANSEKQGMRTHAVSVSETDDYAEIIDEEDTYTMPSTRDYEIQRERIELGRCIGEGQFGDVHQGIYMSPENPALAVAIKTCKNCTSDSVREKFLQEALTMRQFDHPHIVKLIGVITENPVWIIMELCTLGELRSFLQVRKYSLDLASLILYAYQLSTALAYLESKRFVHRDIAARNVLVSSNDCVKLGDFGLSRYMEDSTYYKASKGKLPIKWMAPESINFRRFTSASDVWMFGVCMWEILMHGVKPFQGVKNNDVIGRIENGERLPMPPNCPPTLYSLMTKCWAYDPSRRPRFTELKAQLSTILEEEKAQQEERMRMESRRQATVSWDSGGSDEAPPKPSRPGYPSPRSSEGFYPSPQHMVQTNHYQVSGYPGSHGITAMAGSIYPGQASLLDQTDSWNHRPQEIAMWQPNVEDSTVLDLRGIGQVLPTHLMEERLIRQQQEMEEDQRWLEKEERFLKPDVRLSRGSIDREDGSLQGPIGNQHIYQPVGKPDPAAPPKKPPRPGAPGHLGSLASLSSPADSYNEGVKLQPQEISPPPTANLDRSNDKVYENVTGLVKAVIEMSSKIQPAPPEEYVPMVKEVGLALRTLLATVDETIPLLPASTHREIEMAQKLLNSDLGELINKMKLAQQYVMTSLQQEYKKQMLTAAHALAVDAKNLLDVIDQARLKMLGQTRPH
# UniProt Q14289, whole entry, looked up: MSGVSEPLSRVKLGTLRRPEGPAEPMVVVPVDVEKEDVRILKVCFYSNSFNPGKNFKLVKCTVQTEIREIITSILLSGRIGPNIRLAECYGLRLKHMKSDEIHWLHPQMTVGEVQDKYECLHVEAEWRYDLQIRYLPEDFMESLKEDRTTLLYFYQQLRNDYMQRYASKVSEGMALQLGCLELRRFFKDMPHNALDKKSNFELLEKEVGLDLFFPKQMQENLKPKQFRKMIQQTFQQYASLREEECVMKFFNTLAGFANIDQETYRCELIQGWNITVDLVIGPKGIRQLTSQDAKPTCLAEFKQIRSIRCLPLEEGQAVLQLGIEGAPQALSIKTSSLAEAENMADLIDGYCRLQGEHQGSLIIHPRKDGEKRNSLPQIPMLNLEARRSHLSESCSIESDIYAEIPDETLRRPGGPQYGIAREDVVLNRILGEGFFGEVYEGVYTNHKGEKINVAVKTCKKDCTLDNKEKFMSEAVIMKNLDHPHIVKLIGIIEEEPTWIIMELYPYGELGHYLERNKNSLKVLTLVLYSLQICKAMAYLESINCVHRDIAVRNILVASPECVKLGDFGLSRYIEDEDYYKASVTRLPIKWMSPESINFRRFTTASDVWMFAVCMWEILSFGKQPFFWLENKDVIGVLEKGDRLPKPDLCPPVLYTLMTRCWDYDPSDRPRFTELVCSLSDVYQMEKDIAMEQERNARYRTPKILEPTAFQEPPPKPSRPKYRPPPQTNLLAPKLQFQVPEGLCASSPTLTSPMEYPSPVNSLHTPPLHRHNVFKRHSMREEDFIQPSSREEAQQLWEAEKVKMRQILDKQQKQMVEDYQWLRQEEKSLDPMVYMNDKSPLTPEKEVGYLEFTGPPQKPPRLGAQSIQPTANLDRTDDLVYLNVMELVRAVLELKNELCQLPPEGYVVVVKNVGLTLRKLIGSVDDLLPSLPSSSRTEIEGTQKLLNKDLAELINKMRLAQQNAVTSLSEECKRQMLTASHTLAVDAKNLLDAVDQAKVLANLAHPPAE
# Where a name gives a salt, the structure may show the parent alone. Some of the results follow. Hit calls seldom repeat between salt and free forms of one compound.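 Kinases, fused to nanoluciferase, were expressed in K562 cells; luminescence was measured every 4 h from 2 to 18 h as percent of control (DMSO = 100%, positive control = 0%). A time point is decreased if signal falls significantly (2 sigma). Hits were called by the authors by a rule that is not shown; the count of time points alone does not decide it.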
# Key:
# Test in all cases: kinase-Nluc reporter destabilization hit call (1 = scored as downregulated) (binary); higher = compound decreases kinase abundance
# Conditions in all cases: K562; 2-18 h
# PDPK1 = PDPK1 (UniProt O15530)
# PIK4CA = PIK4CA (UniProt P42356)
# PIK4CB = PIK4CB (UniProt Q9UBF8)
# PLK1 = PLK1 (UniProt P53350)
# PRKAA1 = PRKAA1 (UniProt Q13131)
# PRKCA = PRKCA (UniProt P17252)
# PTK2 = PTK2 (UniProt Q05397)
# PTK2B = PTK2B (UniProt Q14289)
# RAF1 = RAF1 (UniProt P04049)
# [1] = target: RAF1_S257L (clone: RAF1_mut) (UniProt P04049)
Structure (SMILES),kinase-Nluc reporter destabilization hit call (PDPK1),kinase-Nluc reporter destabilization hit call (PIK4CA),kinase-Nluc reporter destabilization hit call (PIK4CB),kinase-Nluc reporter destabilization hit call (PLK1),kinase-Nluc reporter destabilization hit call (PRKAA1),kinase-Nluc reporter destabilization hit call (PRKCA),kinase-Nluc reporter destabilization hit call (PTK2),kinase-Nluc reporter destabilization hit call (PTK2B),kinase-Nluc reporter destabilization hit call (RAF1),kinase-Nluc reporter destabilization hit call [1]
COc1cc(N2CCC(N3CCN(C)CC3)CC2)ccc1Nc1ncc(Cl)c(Nc2ccccc2P(C)(C)=O)n1 [Brigatinib] (2 µM),inactive: 0,inactive: 0,inactive: 0,inactive: 0,inactive: 0,inactive: 0,inactive: 0,inactive: 0,inactive: 0,inactive: 0
CC(C)(C)c1ccc(S(=O)(=O)Nc2ccc(-n3ccnc3)cc2)cc1 (10 µM),inactive: 0,inactive: 0,inactive: 0,inactive: 0,inactive: 0,inactive: 0,inactive: 0,inactive: 0,inactive: 0,inactive: 0
CC(C)=CC[C@H](O)C1=CC(=O)c2c(O)ccc(O)c2C1=O [(-)-Alkannin] (2.5 µM),inactive: 0,inactive: 0,inactive: 0,inactive: 0,inactive: 0,inactive: 0,inactive: 0,inactive: 0,inactive: 0,inactive: 0
Cn1cc(Nc2nccc(N3C[C@H]4CC[C@@H](C3)N4C(=O)[C@@H]3CC3(F)F)n2)cn1 (10 µM),inactive: 0,inactive: 0,inactive: 0,inactive: 0,inactive: 0,inactive: 0,inactive: 0,inactive: 0,inactive: 0,inactive: 0
O=C(NCCCNc1nc(Nc2cccc(NC(=O)N3CCCC3)c2)ncc1I)c1cccs1 (2.5 µM),inactive: 0,inactive: 0,inactive: 0,inactive: 0,inactive: 0,inactive: 0,inactive: 0,inactive: 0,inactive: 0,inactive: 0
COc1ccc2[nH]cc(/C=C3\C(=O)Nc4ccc(NC(=O)CCN5CCCCC5)cc43)c2c1 (2.5 µM),inactive: 0,inactive: 0,inactive: 0,inactive: 0,inactive: 0,inactive: 0,inactive: 0,inactive: 0,inactive: 0,inactive: 0
COc1ncc(-c2nc(N3CCOCC3)nc3c(CN4CCC(C(C)(C)O)CC4)cc(F)cc23)cc1NS(C)(=O)=O [Linperlisib] (10 µM),inactive: 0,inactive: 0,inactive: 0,inactive: 0,inactive: 0,inactive: 0,inactive: 0,inactive: 0,inactive: 0,inactive: 0
C=CC(=O)Nc1cc2c(Nc3ccc(OCc4ccccn4)c(Cl)c3)ncnc2cc1OCCN1CCOCC1 (10 µM),inactive: 0,inactive: 0,inactive: 0,inactive: 0,inactive: 0,inactive: 0,inactive: 0,inactive: 0,inactive: 0,inactive: 0
COc1cc2ncn(-c3cc(OCc4ccccc4S(C)(=O)=O)c(C#N)s3)c2cc1OC (10 µM),inactive: 0,inactive: 0,inactive: 0,inactive: 0,inactive: 0,inactive: 0,inactive: 0,inactive: 0,inactive: 0,inactive: 0
O=C1NC(=O)C(=Cc2ccc(-c3ccc(F)cc3)o2)S1 (stereo in doubt) (10 µM),inactive: 0,inactive: 0,inactive: 0,inactive: 0,inactive: 0,inactive: 0,inactive: 0,inactive: 0,inactive: 0,inactive: 0
Nc1ncnc2c1ncn2[C@@H]1O[C@H](CO)C[C@H]1O [Cordycepin] (10 µM),inactive: 0,inactive: 0,inactive: 0,inactive: 0,inactive: 0,inactive: 0,inactive: 0,inactive: 0,inactive: 0,inactive: 0
COc1cc(N2CCN(C)CC2)ccc1Nc1ncc2c(n1)N(C1CCC1)C(=O)N(c1c(C)cccc1C)C2 (2.5 µM),inactive: 0,inactive: 0,inactive: 0,inactive: 0,inactive: 0,inactive: 0,inactive: 0,inactive: 0,inactive: 0,inactive: 0
CO[C@H]1C[C@@H]2CC[C@@H](C)[C@@](O)(O2)C(=O)C(=O)N2CCCC[C@H]2C(=O)O[C@H]([C@H](C)C[C@@H]2CC[C@@H](O)[C@H](OC)C2)CC(=O)[C@H](C)/C=C(\C)[C@@H](O)[C@@H](OC)C(=O)[C@H](C)C[C@H](C)/C=C/C=C/C=C/1C [Rapamycin] (10 µM),inactive: 0,inactive: 0,inactive: 0,inactive: 0,inactive: 0,inactive: 0,inactive: 0,inactive: 0,inactive: 0,inactive: 0
O=C1Nc2nc(-c3c(O)cccc3OCC3CC3)cc([C@@H]3CCCNC3)c2CO1 [Bay 65-1942 (hydrochloride)] (10 µM),inactive: 0,inactive: 0,inactive: 0,inactive: 0,inactive: 0,inactive: 0,inactive: 0,inactive: 0,inactive: 0,inactive: 0
C#CCN(C)C(=O)CCNc1nc(N2CCN(C(=O)C=C)CC2)c2cc(Cl)c(-c3c(O)cccc3F)c(F)c2n1 [ARS-1323-alkyne] (2.5 µM),inactive: 0,inactive: 0,inactive: 0,inactive: 0,inactive: 0,inactive: 0,inactive: 0,inactive: 0,inactive: 0,inactive: 0
N#CC(c1ccnc(NCCc2cccnc2)n1)c1nc2ccccc2s1 (stereo not given) (10 µM),inactive: 0,inactive: 0,inactive: 0,inactive: 0,inactive: 0,inactive: 0,inactive: 0,inactive: 0,inactive: 0,inactive: 0
O=C(NCCCNC(=O)Nc1cccc(C2=NCCN2)c1)Nc1cccc(C2=NCCN2)c1 [p32 Inhibitor M36] (10 µM),inactive: 0,inactive: 0,inactive: 0,inactive: 0,inactive: 0,inactive: 0,inactive: 0,inactive: 0,inactive: 0,inactive: 0
O=C(Nc1cc(Oc2cc(F)c(NC(=O)C3(C(=O)Nc4ccc(F)cc4)CC3)cc2F)ccn1)C1CC1 [Altiratinib] (10 µM),inactive: 0,inactive: 0,inactive: 0,inactive: 0,inactive: 0,inactive: 0,active: 1,inactive: 0,inactive: 0,inactive: 0
CCN(CC)S(=O)(=O)c1ccc(OC)c(N2CCN(C(=O)c3ccc(F)cc3C(F)(F)F)CC2)c1 (10 µM),inactive: 0,inactive: 0,inactive: 0,inactive: 0,inactive: 0,inactive: 0,inactive: 0,inactive: 0,inactive: 0,inactive: 0
Fc1ccc(-c2nc(-c3ccccc3F)[nH]c2-c2ccncc2)cc1 (2.5 µM),inactive: 0,inactive: 0,inactive: 0,inactive: 0,inactive: 0,inactive: 0,inactive: 0,inactive: 0,inactive: 0,inactive: 0
CC1CCc2nc(N)c(C#N)c(-c3cccnc3)c2C1 (stereo not given) (10 µM),inactive: 0,inactive: 0,inactive: 0,inactive: 0,inactive: 0,inactive: 0,inactive: 0,inactive: 0,inactive: 0,inactive: 0
Cc1cc(O)c(C(C)C)cc1N=O [Poloxime] (10 µM),inactive: 0,inactive: 0,inactive: 0,inactive: 0,inactive: 0,inactive: 0,inactive: 0,inactive: 0,inactive: 0,inactive: 0
CC(C)CN[C@H]1CS(=O)(=O)C[C@@H]1S(=O)(=O)c1ccc(Cl)cc1 (10 µM),inactive: 0,inactive: 0,inactive: 0,inactive: 0,inactive: 0,inactive: 0,inactive: 0,inactive: 0,inactive: 0,inactive: 0
Cc1cc(Nc2cc3ncccc3c(N[C@@H]3C[C@H]4CC[C@@H](C3)N4CCC#N)n2)n[nH]1 [Izencitinib] (10 µM),inactive: 0,inactive: 0,inactive: 0,inactive: 0,inactive: 0,inactive: 0,inactive: 0,inactive: 0,inactive: 0,inactive: 0
Cn1cc(-c2ccc(CNc3cc(-c4cnc5cc(OCCCN6CCCC6)ccn45)ncn3)cc2)cn1 (10 µM),inactive: 0,inactive: 0,inactive: 0,inactive: 0,inactive: 0,inactive: 0,inactive: 0,inactive: 0,inactive: 0,inactive: 0
C[C@]1(O)CCC[C@@H]1n1c(=O)c(C(F)F)cc2cnc(NC3CCN(S(C)(=O)=O)CC3)nc21 (10 µM),inactive: 0,inactive: 0,inactive: 0,inactive: 0,inactive: 0,inactive: 0,inactive: 0,inactive: 0,inactive: 0,inactive: 0
N#Cc1c(-c2ccccc2)cc(-c2cc(Br)ccc2O)[nH]c1=O (10 µM),inactive: 0,inactive: 0,inactive: 0,inactive: 0,inactive: 0,inactive: 0,inactive: 0,inactive: 0,inactive: 0,inactive: 0
NCc1ccc(Nc2ncc(F)c(Nc3ccccc3)n2)cc1 (10 µM),inactive: 0,inactive: 0,inactive: 0,inactive: 0,inactive: 0,inactive: 0,inactive: 0,inactive: 0,inactive: 0,inactive: 0
COc1ccc(Cl)cc1NC(=O)Nc1cc(C)nc2ccccc12 (2.5 µM),inactive: 0,inactive: 0,inactive: 0,inactive: 0,inactive: 0,inactive: 0,inactive: 0,inactive: 0,inactive: 0,inactive: 0

# Part of the list above, with tabs:
Structure (SMILES)	kinase-Nluc reporter destabilization hit call (PDPK1)	kinase-Nluc reporter destabilization hit call (PIK4CA)	kinase-Nluc reporter destabilization hit call (PIK4CB)	kinase-Nluc reporter destabilization hit call (PLK1)	kinase-Nluc reporter destabilization hit call (PRKAA1)	kinase-Nluc reporter destabilization hit call (PRKCA)	kinase-Nluc reporter destabilization hit call (PTK2)	kinase-Nluc reporter destabilization hit call (PTK2B)	kinase-Nluc reporter destabilization hit call (RAF1)	kinase-Nluc reporter destabilization hit call [1]
Cc1cc(Nc2cc3ncccc3c(N[C@@H]3C[C@H]4CC[C@@H](C3)N4CCC#N)n2)n[nH]1 [Izencitinib] (10 µM)	inactive: 0	inactive: 0	inactive: 0	inactive: 0	inactive: 0	inactive: 0	inactive: 0	inactive: 0	inactive: 0	inactive: 0
Cn1cc(-c2ccc(CNc3cc(-c4cnc5cc(OCCCN6CCCC6)ccn45)ncn3)cc2)cn1 (10 µM)	inactive: 0	inactive: 0	inactive: 0	inactive: 0	inactive: 0	inactive: 0	inactive: 0	inactive: 0	inactive: 0	inactive: 0
